Source: the supplement of paper PMC10849652
The list shows a part of the results.

Protein sequences, listed by entry. Tags and fused reporters are not part of them. Lines headed by an entry give the natural chain unless they say otherwise; changes in a name come on top.
UniProt Q9Y3T6: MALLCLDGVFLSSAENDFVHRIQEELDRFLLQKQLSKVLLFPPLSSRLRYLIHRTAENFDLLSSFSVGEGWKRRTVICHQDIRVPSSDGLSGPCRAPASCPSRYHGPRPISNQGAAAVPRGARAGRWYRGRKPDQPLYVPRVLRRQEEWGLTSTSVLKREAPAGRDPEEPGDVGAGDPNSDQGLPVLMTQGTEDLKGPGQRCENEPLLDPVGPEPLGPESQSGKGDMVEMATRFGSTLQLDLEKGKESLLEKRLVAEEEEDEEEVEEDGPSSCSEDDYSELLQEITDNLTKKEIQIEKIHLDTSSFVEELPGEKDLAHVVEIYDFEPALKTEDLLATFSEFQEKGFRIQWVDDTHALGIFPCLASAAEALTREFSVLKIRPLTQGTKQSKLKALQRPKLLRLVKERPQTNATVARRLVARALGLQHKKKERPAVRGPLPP
UniProt O15315: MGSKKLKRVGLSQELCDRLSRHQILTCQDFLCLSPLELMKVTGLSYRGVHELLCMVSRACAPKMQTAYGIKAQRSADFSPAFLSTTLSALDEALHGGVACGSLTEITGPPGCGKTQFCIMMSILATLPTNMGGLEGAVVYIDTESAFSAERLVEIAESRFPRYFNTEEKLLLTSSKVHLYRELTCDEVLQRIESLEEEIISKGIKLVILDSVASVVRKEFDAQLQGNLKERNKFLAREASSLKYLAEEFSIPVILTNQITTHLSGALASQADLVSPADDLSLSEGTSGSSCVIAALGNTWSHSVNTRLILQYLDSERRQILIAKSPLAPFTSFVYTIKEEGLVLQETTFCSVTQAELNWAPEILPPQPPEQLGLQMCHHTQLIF
UniProt Q9H974: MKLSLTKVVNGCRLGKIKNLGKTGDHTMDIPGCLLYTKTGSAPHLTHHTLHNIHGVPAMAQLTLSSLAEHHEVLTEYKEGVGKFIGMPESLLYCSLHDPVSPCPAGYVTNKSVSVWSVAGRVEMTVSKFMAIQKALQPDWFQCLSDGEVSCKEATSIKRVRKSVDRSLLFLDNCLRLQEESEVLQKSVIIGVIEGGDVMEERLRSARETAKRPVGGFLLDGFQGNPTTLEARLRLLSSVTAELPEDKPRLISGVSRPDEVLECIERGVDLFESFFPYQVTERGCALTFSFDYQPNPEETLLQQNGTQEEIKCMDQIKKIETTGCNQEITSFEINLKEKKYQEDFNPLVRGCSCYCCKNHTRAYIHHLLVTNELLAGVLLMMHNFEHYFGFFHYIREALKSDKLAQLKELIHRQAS
UniProt Q9NX57: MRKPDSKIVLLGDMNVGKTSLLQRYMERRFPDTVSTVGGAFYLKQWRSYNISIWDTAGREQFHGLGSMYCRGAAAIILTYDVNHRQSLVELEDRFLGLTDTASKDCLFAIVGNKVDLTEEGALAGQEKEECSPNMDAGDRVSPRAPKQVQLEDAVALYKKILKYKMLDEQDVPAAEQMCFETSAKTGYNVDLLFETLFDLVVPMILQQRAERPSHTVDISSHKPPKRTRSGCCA
UniProt P11216: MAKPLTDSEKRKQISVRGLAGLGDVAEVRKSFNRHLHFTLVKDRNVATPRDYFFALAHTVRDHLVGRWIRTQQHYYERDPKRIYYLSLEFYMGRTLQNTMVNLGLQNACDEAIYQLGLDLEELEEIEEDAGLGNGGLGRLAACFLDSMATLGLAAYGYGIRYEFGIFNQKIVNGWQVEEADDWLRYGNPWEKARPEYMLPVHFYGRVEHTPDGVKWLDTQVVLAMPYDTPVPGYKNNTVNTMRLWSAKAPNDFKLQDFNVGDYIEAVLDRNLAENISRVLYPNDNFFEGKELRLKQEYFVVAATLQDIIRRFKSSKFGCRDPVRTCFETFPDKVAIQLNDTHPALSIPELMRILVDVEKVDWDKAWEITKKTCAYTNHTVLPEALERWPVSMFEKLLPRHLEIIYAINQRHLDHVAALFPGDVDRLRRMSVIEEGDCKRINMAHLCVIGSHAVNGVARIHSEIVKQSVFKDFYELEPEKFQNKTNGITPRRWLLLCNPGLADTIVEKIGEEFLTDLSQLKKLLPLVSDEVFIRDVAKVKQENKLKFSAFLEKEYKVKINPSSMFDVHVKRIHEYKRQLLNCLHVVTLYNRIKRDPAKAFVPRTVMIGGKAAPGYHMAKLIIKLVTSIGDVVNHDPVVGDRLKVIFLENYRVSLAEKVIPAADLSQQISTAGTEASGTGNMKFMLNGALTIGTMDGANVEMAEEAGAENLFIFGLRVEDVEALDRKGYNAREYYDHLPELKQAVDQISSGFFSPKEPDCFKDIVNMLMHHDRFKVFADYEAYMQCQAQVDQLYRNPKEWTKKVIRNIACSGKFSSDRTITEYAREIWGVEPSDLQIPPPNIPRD
UniProt Q4G0T1: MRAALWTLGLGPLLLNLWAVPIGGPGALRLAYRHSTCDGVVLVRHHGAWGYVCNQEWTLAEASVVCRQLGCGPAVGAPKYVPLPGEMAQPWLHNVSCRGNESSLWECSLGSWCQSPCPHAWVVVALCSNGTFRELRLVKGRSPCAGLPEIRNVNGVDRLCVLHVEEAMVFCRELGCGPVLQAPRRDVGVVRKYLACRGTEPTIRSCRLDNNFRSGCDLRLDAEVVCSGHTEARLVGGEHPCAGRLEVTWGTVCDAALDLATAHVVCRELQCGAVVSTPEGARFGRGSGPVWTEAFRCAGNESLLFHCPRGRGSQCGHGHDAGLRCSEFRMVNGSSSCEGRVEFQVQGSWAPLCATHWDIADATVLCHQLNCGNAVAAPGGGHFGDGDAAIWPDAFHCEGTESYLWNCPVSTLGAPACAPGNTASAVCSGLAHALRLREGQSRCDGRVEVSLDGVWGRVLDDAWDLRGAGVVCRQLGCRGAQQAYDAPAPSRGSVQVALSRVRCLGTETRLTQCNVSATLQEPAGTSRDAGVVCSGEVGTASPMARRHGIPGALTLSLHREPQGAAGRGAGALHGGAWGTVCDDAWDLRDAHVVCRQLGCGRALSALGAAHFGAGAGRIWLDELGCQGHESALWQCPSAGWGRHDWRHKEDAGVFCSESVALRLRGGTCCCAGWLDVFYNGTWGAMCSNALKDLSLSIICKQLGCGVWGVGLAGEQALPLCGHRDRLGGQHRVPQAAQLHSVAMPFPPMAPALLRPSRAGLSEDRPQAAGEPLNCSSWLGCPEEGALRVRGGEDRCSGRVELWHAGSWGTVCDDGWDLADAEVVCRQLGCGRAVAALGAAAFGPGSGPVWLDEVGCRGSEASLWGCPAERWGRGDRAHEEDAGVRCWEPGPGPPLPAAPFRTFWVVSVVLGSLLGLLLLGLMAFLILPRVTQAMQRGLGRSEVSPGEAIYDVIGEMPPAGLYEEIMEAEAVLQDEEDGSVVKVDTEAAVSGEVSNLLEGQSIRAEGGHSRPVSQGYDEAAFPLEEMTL
UniProt O75771: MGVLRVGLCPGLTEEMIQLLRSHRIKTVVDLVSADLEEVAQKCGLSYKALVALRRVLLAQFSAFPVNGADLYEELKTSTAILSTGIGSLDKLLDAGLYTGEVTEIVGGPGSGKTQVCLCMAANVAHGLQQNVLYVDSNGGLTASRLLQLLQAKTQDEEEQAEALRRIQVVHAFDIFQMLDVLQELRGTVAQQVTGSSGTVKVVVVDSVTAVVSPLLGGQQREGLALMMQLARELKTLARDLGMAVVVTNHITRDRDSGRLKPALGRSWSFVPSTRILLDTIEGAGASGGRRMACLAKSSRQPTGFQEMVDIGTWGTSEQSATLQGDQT
UniProt Q9BUV8: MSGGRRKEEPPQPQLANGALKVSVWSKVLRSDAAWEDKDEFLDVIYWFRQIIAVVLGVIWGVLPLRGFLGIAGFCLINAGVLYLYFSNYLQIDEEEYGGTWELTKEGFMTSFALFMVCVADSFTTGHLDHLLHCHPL
UniProt P54725: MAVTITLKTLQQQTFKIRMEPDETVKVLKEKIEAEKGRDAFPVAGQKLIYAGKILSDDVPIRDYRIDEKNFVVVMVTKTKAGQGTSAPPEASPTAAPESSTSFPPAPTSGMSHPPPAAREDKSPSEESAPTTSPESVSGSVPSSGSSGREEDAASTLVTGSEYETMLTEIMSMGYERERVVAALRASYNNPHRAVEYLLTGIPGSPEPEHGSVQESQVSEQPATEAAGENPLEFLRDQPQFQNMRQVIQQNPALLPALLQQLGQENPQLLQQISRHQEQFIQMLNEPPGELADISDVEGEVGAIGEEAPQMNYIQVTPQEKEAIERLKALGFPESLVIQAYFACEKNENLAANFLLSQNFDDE
UniProt Q86X27: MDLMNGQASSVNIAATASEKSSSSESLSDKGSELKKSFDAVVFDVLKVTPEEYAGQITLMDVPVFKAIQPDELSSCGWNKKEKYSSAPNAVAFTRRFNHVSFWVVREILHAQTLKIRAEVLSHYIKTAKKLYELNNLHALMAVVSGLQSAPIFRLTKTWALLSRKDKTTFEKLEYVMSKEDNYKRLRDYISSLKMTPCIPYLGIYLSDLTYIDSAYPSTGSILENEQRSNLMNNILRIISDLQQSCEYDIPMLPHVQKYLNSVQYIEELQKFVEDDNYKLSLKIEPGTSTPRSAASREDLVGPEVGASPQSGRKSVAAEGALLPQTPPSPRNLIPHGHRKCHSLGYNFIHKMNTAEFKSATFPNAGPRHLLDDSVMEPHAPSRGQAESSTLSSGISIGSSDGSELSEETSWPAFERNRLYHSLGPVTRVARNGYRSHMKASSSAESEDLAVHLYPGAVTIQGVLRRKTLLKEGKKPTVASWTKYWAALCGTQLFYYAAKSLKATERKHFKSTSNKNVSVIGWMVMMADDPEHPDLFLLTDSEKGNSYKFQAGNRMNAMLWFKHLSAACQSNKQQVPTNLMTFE
UniProt P32322: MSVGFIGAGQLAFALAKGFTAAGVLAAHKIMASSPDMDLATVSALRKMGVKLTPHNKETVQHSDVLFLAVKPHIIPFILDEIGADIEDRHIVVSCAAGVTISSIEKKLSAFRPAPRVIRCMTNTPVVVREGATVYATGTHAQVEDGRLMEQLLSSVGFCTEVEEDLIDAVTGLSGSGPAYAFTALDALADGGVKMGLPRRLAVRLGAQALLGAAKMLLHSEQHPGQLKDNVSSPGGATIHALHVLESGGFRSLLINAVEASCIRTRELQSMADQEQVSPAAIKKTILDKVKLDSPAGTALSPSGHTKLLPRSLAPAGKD
UniProt Q9BRQ0: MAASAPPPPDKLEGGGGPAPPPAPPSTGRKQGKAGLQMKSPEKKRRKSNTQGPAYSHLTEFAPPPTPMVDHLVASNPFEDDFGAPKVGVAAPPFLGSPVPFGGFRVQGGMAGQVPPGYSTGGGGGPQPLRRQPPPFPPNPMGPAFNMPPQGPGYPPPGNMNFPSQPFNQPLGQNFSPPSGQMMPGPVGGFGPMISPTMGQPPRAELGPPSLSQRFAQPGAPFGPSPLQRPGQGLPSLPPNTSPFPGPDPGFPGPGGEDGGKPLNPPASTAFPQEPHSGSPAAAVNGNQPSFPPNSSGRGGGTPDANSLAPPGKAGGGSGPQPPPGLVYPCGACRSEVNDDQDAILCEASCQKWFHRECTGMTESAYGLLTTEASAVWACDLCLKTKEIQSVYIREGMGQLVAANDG
UniProt O00194: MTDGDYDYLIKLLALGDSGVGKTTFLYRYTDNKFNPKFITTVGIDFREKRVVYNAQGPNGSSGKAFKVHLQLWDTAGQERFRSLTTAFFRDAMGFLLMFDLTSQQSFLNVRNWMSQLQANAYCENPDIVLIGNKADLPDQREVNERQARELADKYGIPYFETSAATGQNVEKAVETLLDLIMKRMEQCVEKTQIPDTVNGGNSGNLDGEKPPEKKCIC
UniProt Q86YS6: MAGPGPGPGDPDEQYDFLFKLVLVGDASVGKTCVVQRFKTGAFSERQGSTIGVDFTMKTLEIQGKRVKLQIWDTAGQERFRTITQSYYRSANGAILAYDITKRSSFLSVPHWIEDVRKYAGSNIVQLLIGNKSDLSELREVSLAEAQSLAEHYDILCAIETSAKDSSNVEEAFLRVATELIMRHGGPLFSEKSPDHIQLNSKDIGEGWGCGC
UniProt P52306: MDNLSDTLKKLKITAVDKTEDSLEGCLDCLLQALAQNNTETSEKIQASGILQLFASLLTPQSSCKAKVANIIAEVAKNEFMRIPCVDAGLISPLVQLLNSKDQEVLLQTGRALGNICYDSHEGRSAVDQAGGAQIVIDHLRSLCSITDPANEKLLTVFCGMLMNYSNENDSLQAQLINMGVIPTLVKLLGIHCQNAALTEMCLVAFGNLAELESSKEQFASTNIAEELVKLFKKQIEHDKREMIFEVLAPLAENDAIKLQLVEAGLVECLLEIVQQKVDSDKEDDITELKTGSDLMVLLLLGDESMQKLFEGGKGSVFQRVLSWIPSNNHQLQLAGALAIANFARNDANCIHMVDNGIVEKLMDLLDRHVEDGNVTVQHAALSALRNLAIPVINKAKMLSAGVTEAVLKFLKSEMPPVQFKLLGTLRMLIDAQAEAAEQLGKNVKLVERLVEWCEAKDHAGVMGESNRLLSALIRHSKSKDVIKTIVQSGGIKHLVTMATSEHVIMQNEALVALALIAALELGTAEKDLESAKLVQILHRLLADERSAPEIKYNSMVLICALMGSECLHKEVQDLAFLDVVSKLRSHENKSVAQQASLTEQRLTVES

Tests used:
Experiment in all cases: log2 fold change, soluble protein after heating vs DMSO (PISA); higher = thermal stabilisation; K562 lysate, 10 uM; active = over 0.2 and 3.5 SD of the protein, either way, in both replicates (recomputed)
[1] = compound: Cc1cn(-c2cc(NC(=O)c3ccc(C)c(Nc4nccc(-c5cccnc5)n4)c3)cc(C(F)(F)F)c2)cn1 [nilotinib]
Outline: (§1)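 A 30 min treatment with 10 μM compound was applied to crude K562 extract at 1 mg/mL protein in PBS pH 7.4 with 1 mM MgCl2. Heating for 3 min spanned 48°C-58°C, after which aliquots were pooled, adjusted to 0.5% NP-40 at 4°C and spun at 21,000xg for 90 min. TMTpro 16plex LC-MS/MS of the supernatant, with channel sums equalised, gave values recorded as log-two fold change in thermal stability against solvent controls, from duplicates.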

[2] = compound: Cc1nc(Nc2n[nH]c3c2CN(C(=O)N[C@H](CN(C)C)c2ccccc2)C3(C)C)c2sccc2n1
Outline: as §1

[3] = compound: Cc1nc(Nc2ncc(C(=O)Nc3c(C)cccc3Cl)s2)cc(N2CCN(CCO)CC2)n1 [dasatinib]
Outline: as §1

[4] = compound: Cc1ncc(-c2ccnc(Nc3ccc(S(C)(=O)=O)cc3)n2)n1C(C)C
Outline: as §1

[5] = compound: Cn1cc(-c2ccc3c(c2)CCN3C(=O)Cc2cccc(C(F)(F)F)c2)c2c(N)ncnc21
Outline: as §1

[6] = compound: Cn1cc(CNCC2CCN(c3ncc(C(=O)NO)cn3)CC2)c2ccccc21 [quisinostat]
Outline: as §1

[7] = compound: Cn1cncc1[C@@](N)(c1ccc(Cl)cc1)c1ccc2c(c1)c(-c1cccc(Cl)c1)cc(=O)n2C [tipifarnib]
Outline: as §1

[8] = compound: NC(=O)Nc1cc(-c2cccc(F)c2)sc1C(=O)N[C@H]1CCCNC1
Outline: as §1

[9] = compound: NC(=O)c1cnc(N[C@@H]2CCCC[C@@H]2N)nc1Nc1cccc(-n2nccn2)c1
Outline: as §1

[10] = compound: NC1(c2ccc(-c3nc4ccn5c(=O)[nH]nc5c4cc3-c3ccccc3)cc2)CCC1
Outline: as §1

Measured: log2 fold change

RAN (UniProt P62826)
inactive: [1] 0.012 | [2] -0.018 | [3] 0.021 | [4] -0.007 | [5] -0.019 | [6] 0.021 | [7] 0.047 | [8] -0.039 | [9] 0.005 | [10] 0.019

R3HCC1 (UniProt Q9Y3T6)
inactive: [1] -0.023 | [2] 0.012 | [3] 0.043 | [4] 0.011 | [5] -0.049 | [6] -0.014 | [7] -0.058 | [8] -0.036 | [9] 0.003 | [10] 0.038

RAD51B (UniProt O15315)
inactive: [1] -0.017 | [2] -0.038 | [3] -0.081 | [4] 0.074 | [5] 0.014 | [6] -0.117 | [7] 0.015 | [8] -0.057 | [10] -0.054

QTRT2 isoform 4 (UniProt Q9H974)
inactive: [1] -0.001 | [2] -0.024 | [3] 0.005 | [4] -0.024 | [5] -0.051 | [6] -0.059 | [7] 0.022 | [8] 0.022 | [9] 0.004 | [10] 0.021

R3HCC1L, A0A384DVK4
inactive: [1] 0.031 | [2] 0.043 | [3] 0.003 | [4] -0.012 | [5] 0 | [6] -0.03 | [7] -0.112 | [8] 0.046 | [9] 0.02 | [10] 0.029

RAB27A (UniProt P51159)
inactive: [1] -0.018 | [2] 0.02 | [3] 0.022 | [4] -0.059 | [5] 0.003 | [6] 0.037 | [7] 0.038 | [8] -0.024 | [9] 0.014 | [10] 0.021

RAP1A (UniProt P62834)
inactive: [1] 0.024 | [2] 0.013 | [3] 0.016 | [4] -0.011 | [5] -0.005 | [6] 0.077 | [7] -0.021 | [8] -0.02 | [9] -0.012 | [10] -0.006

RAB20 (UniProt Q9NX57)
inactive: [1] -0.044 | [2] -0.131 | [3] -0.076 | [4] -0.106 | [5] 0.029 | [6] 0.018 | [7] -0.221 | [8] -0.022 | [9] 0.065 | [10] -0.073

PYGB (UniProt P11216)
inactive: [1] -0.019 | [2] 0.001 | [3] 0.112 | [4] -0.02 | [5] 0.006 | [6] -0.033 | [7] 0.014 | [8] 0.013 | [9] 0.003 | [10] 0.04

QARS1, A0A0U1RR66
inactive: [9] -0.049

RAB11FIP4 (UniProt Q86YS3)
inactive: [1] -0.098 | [2] -0.001 | [3] 0.142 | [4] -0.003 | [5] -0.106 | [7] -0.196 | [9] -0.07 | [10] -0.004

NA (UniProt Q4G0T1)
inactive: [3] 0.054 | [5] 0.095 | [6] 0.034 | [8] 0.054 | [10] 0.062

RAB28 (UniProt P51157)
inactive: [3] 0.025 | [5] 0.02 | [6] 0.001 | [8] 0.086 | [9] 0.242 | [10] 0.053

PYCARD isoform 2 (UniProt Q9ULZ3)
inactive: [6] -0.122 | [8] 0.033 | [9] 0.104 | [10] 0.217

RAD51D (UniProt O75771)
inactive: [1] 0.026 | [2] 0.047 | [3] 0.044 | [4] 0.068 | [5] 0.004 | [7] -0.055 | [9] 0.076 | [10] -0.026

R3HDM2 (UniProt B5MCU0)
inactive: [6] 0.03 | [8] 0.086 | [10] -0.257

RALGAPA2 (UniProt Q2PPJ7)
inactive: [6] 0.017 | [8] -0.06 | [9] -0.044

RAB29 (UniProt O14966)
inactive: [3] 0.011 | [5] -0.046 | [10] -0.141

RAB3B (UniProt P20337)
inactive: [6] 0.004 | [8] -0.007

RAB5IF isoform 5 (UniProt Q9BUV8)
inactive: [1] -0.033 | [2] -0.033 | [3] -0.108 | [4] -0.003 | [5] 0.06 | [7] -0.189 | [9] 0.026 | [10] -0.096

RAPGEF4 (UniProt Q8WZA2)
inactive: [3] -0.092 | [5] -0.061 | [6] -0.491 | [8] 0.16 | [9] 0.064 | [10] -0.192

RANGRF (UniProt Q9HD47)
inactive: [3] 0.082 | [5] 0.223 | [6] 0.012 | [8] -0.018 | [9] -0.03 | [10] 0.147

RAB33B (UniProt Q9H082)
inactive: [1] 0.012 | [2] -0.025 | [3] -0.076 | [4] 0 | [5] 0.009 | [7] -0.061 | [9] -0.049 | [10] -0.058

RAB11FIP5, A0A1B0GTL5
inactive: [6] 0.15 | [8] -0.313 | [9] -0.066 | [10] -0.016

RALGAPB isoform 3 (UniProt Q86X10)
inactive: [3] 0.052 | [5] -0.034

2 entries picked at random from the list so far:
RAB11FIP5, A0A1B0GTL5
inactive: [6] 0.15 | [8] -0.313 | [9] -0.066 | [10] -0.016

RAB33B (UniProt Q9H082)
inactive: [1] 0.012 | [2] -0.025 | [3] -0.076 | [4] 0 | [5] 0.009 | [7] -0.061 | [9] -0.049 | [10] -0.058

Following part.

RAD23A isoform 3 (UniProt P54725)
inactive: [1] -0.019 | [2] -0.194 | [4] -0.036 | [7] 0.225 | [9] -0.099 | [10] -0.178

RAI1 (UniProt Q7Z5J4)
inactive: [6] 0.129 | [8] -0.198

RALGPS2 (UniProt Q86X27)
inactive: [1] 0.109 | [2] 0.015 | [4] 0.211 | [6] -0.279 | [7] -0.056 | [8] 0.147 | [10] -0.153

PYCR1 isoform 3 (UniProt P32322)
inactive: [1] 0.031 | [2] 0.001 | [4] -0.021 | [5] -0.009 | [6] 0.031 | [7] 0.056 | [8] -0.022 | [9] 0.017 | [10] 0.051

RAB30 (UniProt Q15771)
inactive: [3] 0.025 | [5] 0.018 | [6] 0.03 | [8] -0.01 | [10] -0.095

PYGO2 (UniProt Q9BRQ0)
inactive: [1] 0.01 | [2] 0.044 | [3] -0.028 | [4] 0.063 | [5] 0.004 | [6] 0.016 | [7] -0.02 | [8] -0.015 | [10] 0.029

RAB40C (UniProt Q96S21)
inactive: [1] -0.081 | [2] 0.083 | [4] -0.033 | [6] -0.059 | [7] -0.067 | [8] 0.058 | [9] 0.026 | [10] 0.022

RAC3 (UniProt P60763)
inactive: [6] -0.06 | [8] 0.007 | [10] 0.013

RAB27B (UniProt O00194)
inactive: [1] -0.007 | [2] -0.06 | [3] 0.075 | [4] 0.045 | [5] -0.179 | [7] 0.003 | [9] -0.045 | [10] 0.138

RAB3D (UniProt O95716)
inactive: [3] 0.108 | [5] -0.106 | [6] 0.055 | [8] -0.065 | [9] -0.034 | [10] -0.11

QSOX1 (UniProt O00391)
inactive: [3] 0.242 | [5] -0.214 | [6] -0.079 | [8] -0.078 | [10] -0.048

RAD54L (UniProt Q92698)
inactive: [1] -0.004 | [2] 0.078 | [3] -0.212 | [4] 0.037 | [5] -0.054 | [7] 0.007 | [9] 0.015 | [10] -0.073

RAB43 (UniProt Q86YS6)
inactive: [1] 0.12 | [2] 0.07 | [3] 0.072 | [4] -0.041 | [5] 0.049 | [7] -0.115 | [10] -0.037

RACK1 (UniProt D6RF23)
inactive: [1] -0.322 | [2] -0.128 | [4] -0.031 | [7] 0.096

RAB11FIP3 isoform 3 (UniProt O75154)
inactive: [3] -0.275 | [5] 0.164 | [9] 0.105 | [10] 0.046

R3HDM1 isoform 3 (UniProt Q15032)
inactive: [3] -0.07 | [5] 0.023 | [6] -0.115 | [8] -0.011 | [9] -0.094 | [10] -0.035

RAP1GDS1 isoform 4 (UniProt P52306)
inactive: [9] -0.053
